Laboratory results taken from PubChem BioAssay AID1508600 (Functional Genomics Laboratory (NCATS/FGL), 2020).
Out of some 53,000 sequences screened, about 3,700 (7%) were called active.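 Rule for the calls: active = gene knockdowns whose robust z-score for IL-1 alpha signal is at least 2 or at most -2, so actives lie on both sides; inactive = the rest.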 Some of the results follow.

Assay: Components of the Cytosolic LPS Sensing Pathway: Gene Identification via Genome-wide siRNA Screen;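 note: robust z of the log signal after scaling to non-targeting control siRNA wells of the plate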
Conditions: RAW264.7 macrophages, IL-1a HTRF, actives lie on both sides, screened at 100 nM (by protocol), cells primed 5 h with Pam3CSK4 first
Outline: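 Using IL-1a HTRF as read-out, the screen measured release from RAW264.7 cells after 48h siRNA knockdown (100 nM), 5 h Pam3CSK4 priming and 24 h cytosolic LipidA. Values were expressed relative to negative-control wells as robust z-scores.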
With GGAGUUUGUAGCUGACAUCTT against Dcaf15 the z-score was inactive: -1.02.
In the case of ACCCUUUUGUUUACACUCUTT against Olfr763, the z-score is reported as inactive: -0.76.
In the case of GGUGGAAGGCAACAUAUAUTT against Vta1, the z-score is reported as inactive: -1.55.
In the case of GAUGGACAGAAAUCAGGAGTT against Arap1, the z-score is reported as inactive: 0.208.
In the case of GGACCCAUCGGAUAACUAUTT against Stk40, the z-score is reported as inactive: 0.499.
In the case of GGACGACGACUUUGAGAGGTT against Map2k2, the z-score is reported as inactive: 0.348.
For GCAACUCUAACUUAUAAGATT against Dennd1a, the z-score was inactive: -0.569.
For GGGUGAUGAGCCUAAGCUATT against Scamp5, the z-score was inactive: -0.616.
In the case of GGACUUGGGUCAUUGUGAGTT against Grpel1, the z-score is reported as inactive: -0.93.
For GGAGUUAAACAAACAGAGUTT against Psma6, the z-score was inactive: -0.855.
For GGCUCCAAGGAGAAUUGUUTT against Bbox1, the z-score was inactive: -0.93.
With GGAACAAGUUUGUGCUUUCTT against Cpd the z-score was inactive: 0.728.
In the case of GGAACAAAAGUGUGAAGAATT against Ccnd2, the z-score is reported as inactive: -0.0981.
With CCAUCUAACCCUAUAUUAGTT against G6pdx the z-score was inactive: -1.21.
For CGGUUCUCUACAUUACUGCTT against Pllp, the z-score was inactive: 0.223.
For CGUGGCUAGGUUAUUUAAATT against Htr1d, the z-score was inactive: 1.01.
For GGAGUAUGAAUGCUAUGUCTT against Fsd2, the z-score was active: -3.24.
For “GGGCAAAGACAGUAUUCAATT against B530045E10Rik”, the z-score was inactive: 0.4.
In the case of GGAUACAAUGCAACUGUCCTT against Kif4, the z-score is reported as inactive: -1.08.
For GGAAUUGGAUUCAAGUAUGTT against Ubiad1, the z-score was inactive: -0.253.
In the case of GCUCCCUUUACAACUCUCATT against Ifna6, the z-score is reported as inactive: 1.96.
With GCAUGAACGACCCGCUGAATT against Wdsub1 the z-score was inactive: 0.331.
In the case of GGAUUCCAAAUGCUUACAATT against Lysmd3, the z-score is reported as inactive: 0.757.
For GCCGCUGCACUACAAUUUGTT against Trhde, the z-score was inactive: 0.717.
For CCAGAGCCCAAGCCAAGUUTT against Nanos3, the z-score was inactive: 0.639.
In the case of GCAUCUGCUAUGGGAAGACTT against Ttc39b, the z-score is reported as inactive: 1.03.
In the case of GGAGAAGGGACCUCAGAACTT against Plrg1, the z-score is reported as inactive: 0.084.
For GGUCAUUGUGUUAUUACCATT against Prdx4, the z-score was inactive: -0.187.
With “GGAUAUGUGUCGCCAUAUATT against 4930590J08Rik” the z-score was inactive: 0.835.
With GCCAAUUGAUUAUAAUCGCTT against Riok2 the z-score was inactive: 0.0984.
For GGUUUUUCUCAACAAACUCTT against Svs2, the z-score was inactive: -0.511.
With CCCACAGUUGACUGUCUUUTT against Clcnkb the z-score was inactive: 0.46.
In the case of GGCUUUACAGAAAUAUCCUTT against Exoc3l2, the z-score is reported as inactive: -1.89.
For CCCUAAUUCUUAGGCCUUUTT against Bloc1s3, the z-score was inactive: -0.242.
With GGGCCUAUCAAGAUUUUCCTT against Stk11ip the z-score was inactive: -0.0264.
In the case of GGUCAAUGACAUCGUCAGUTT against Fam171b, the z-score is reported as inactive: -1.04.
With GCUGGUAUUGGCGAAUGGUTT against Lysmd4 the z-score was inactive: 0.358.
For GGACCUGUUUGAUCCCAUCTT against Ckm, the z-score was inactive: -1.54.
In the case of GCAGAUCAUUCCCGUGUUGTT against P2ry14, the z-score is reported as inactive: 0.565.
For GGUUUUGGUCACUCUUUGGTT against Olfr1240, the z-score was inactive: -0.00786.
With GCUCAACUGCCUGAGAUGCTT against Pink1 the z-score was inactive: 0.573.
For GGAGUCAUGGAUGAAUGUATT against Abhd18, the z-score was inactive: -1.27.
With GGACCUUUAUAAUGACAGGTT against Uqcrb the z-score was inactive: 0.603.
With CCAAACAAUGUUGUUUAGGTT against Rilpl1 the z-score was inactive: -0.965.
For GGUGACUCACUCGUGUUAATT against Scn9a, the z-score was inactive: -0.0161.
With GGUUCUGGAAAGUUCUCUGTT against Sorcs2 the z-score was inactive: -0.0101.
In the case of GGCUUAUGUUUGCUUUGUUTT against Piwil1, the z-score is reported as inactive: 0.0916.
In the case of GGUUUUACGGAAACGGGAATT against Nid2, the z-score is reported as inactive: 1.45.
In the case of GGGCUCUAAAAAGGAUUUUTT against Snrnp200, the z-score is reported as inactive: -0.0221.
In the case of GGAAGAAAUGCAGGUGUGGTT against Gab3, the z-score is reported as active: -2.15.
In the case of GGGCAUCCUCUUCAAAGAUTT against Drc3, the z-score is reported as inactive: -1.12.
For GGAGUUAUGGAUGACGUGGTT against Stard4, the z-score was inactive: -1.07.
With GGAAGAAUAAAGUGCUUUGTT against Chga the z-score was active: 2.27.
With GGGUGUACAGGAUUUCCACTT against Nfyc the z-score was inactive: 0.0255.
With GCAGAAGUUUUGAGCCACUTT against Ralgps2 the z-score was inactive: 0.193.
In the case of GUGAUGUGGCCAUGUCAAUTT against Olfr641, the z-score is reported as active: -2.61.
With GGGCGAAAAGGUGAAACAATT against Flot2 the z-score was inactive: -0.864.
For GGCUCUUGUCACAUGAUCATT against Jagn1, the z-score was inactive: -1.77.
For “GGUACACAGCCAAAGACUGTT against A030005L19Rik”, the z-score was inactive: 0.256.
In the case of GGAGAUCCACAUCAACGAATT against Slc9a1, the z-score is reported as inactive: -0.589.
In the case of GCCUGACGAUAAGAAAGAATT against Map4k4, the z-score is reported as inactive: -0.907.
With GGCUUAAAGAAGAAAAAGATT against Spdl1 the z-score was inactive: 0.757.
With GGUAUCCUGUCAUCAUGAGTT against Olfr272 the z-score was inactive: 0.182.
For GCAAAUACCUGUUGAAUAATT against Timd4, the z-score was inactive: 1.12.
For GGUAGAGGCAGUCAUGACATT against Abcg5, the z-score was inactive: -1.12.
With GCCAUCUUUUUACCUGGUCTT against Selenon the z-score was inactive: -0.845.
With UUGCUAUAAGGGCAUGGAATT against LOC434448 the z-score was inactive: 1.42.
For GCCUACAACCGCUUCUUGGTT against Fam83h, the z-score was inactive: -0.912.
For GGAAGAGAAGAAGGAACUUTT against Ada, the z-score was inactive: -1.51.
For GCAGGAAAGAGUUCAACAGTT against Gimap4, the z-score was inactive: -1.02.
With CGAGAUCACAGACCAAUUGTT against Shisa2 the z-score was inactive: 0.513.
With GGACAAAACGUGCAAUAUGTT against Pkdcc the z-score was inactive: -0.188.
With CGGAUUAUGAGGGACAAGCTT against Agk the z-score was inactive: 1.85.
In the case of GCUCUCUAUAGGAUAAUGGTT against Vwa5b2, the z-score is reported as inactive: -1.86.
For GCACGCCUUACUGGAAUCCTT against Bub1, the z-score was inactive: -0.58.
With GGACCUCCCACAGUGUUAUTT against Enpp2 the z-score was inactive: -0.574.
In the case of GGUCAAGGUCAAAUAAAAGTT against Lgals2, the z-score is reported as inactive: -1.98.
With GGUGUUUGCCCUUCCGUGATT against Gper1 the z-score was inactive: 0.521.
With CGUGUAUCGCAGUUUGUCCTT against E2f3 the z-score was inactive: 0.851.
In the case of GGAGCUAAAAACUUGUAUATT against Rpl23, the z-score is reported as inactive: -0.0611.
In the case of UGUGCCCUAUAGAACCUGUTT against Krtap13-1, the z-score is reported as inactive: 0.394.
For GGAUGAAAUCGAUUGUCUCTT against Ctsa, the z-score was inactive: 0.707.
With GGGAAAUUUACAGAAAGUGTT against Igtp the z-score was inactive: 0.956.
In the case of CGACUCCCACCUUUAGGAGTT against Nkx2-5, the z-score is reported as active: 2.5.
For CGAAACACCAGAUGUAUUCTT against Gck, the z-score was inactive: -0.551.
For GGUAUGCGAUCAAACUUUUTT against Ttr, the z-score was inactive: -0.309.
With GGAUCUUCUACACAGUAAATT against Ppp2r3d the z-score was inactive: -0.0431.
For GGAACUGGAUGAAUCAAAUTT against Ehbp1, the z-score was inactive: -0.262.
For GGACAUGAUCCAUAUUGCATT against Eif3l, the z-score was inactive: -1.06.
With GGGUUGAUGUGGUAGAUGATT against Zfp185 the z-score was inactive: -1.27.
With GCUACGCAUUGAGGAGCUATT against Pkn1 the z-score was inactive: 0.168.
With GCCUGUUCGGGAACCUUAUTT against Olfr299 the z-score was inactive: 1.61.
In the case of CGACCUGAGUGAAAAGAAGTT against Stk32c, the z-score is reported as inactive: 0.754.
With GGCUCUGGGAAUGACGACATT against Zbp1 the z-score was inactive: 0.357.
In the case of CCUCGUUCCUUUGAAAUCATT against Gfi1, the z-score is reported as inactive: 0.255.
In the case of GCUUACGUUUCAUUCUCCCTT against Bora, the z-score is reported as inactive: -1.59.
In the case of GGAACUUUGAACUGAAGGGTT against Upb1, the z-score is reported as inactive: 1.53.
For CGAUAUCCUGAAACUGCCUTT against Tbx3, the z-score was inactive: 0.00551.
In the case of GGUGAGGACCUUCUUCCUUTT against B3galt5, the z-score is reported as inactive: -1.5.
For GGGCUUCAGUGAGAACGAUTT against Ift46, the z-score was inactive: -1.3.
With GCCGAGACAUAUGCCAAGATT against Dmpk the z-score was inactive: -1.07.
In the case of CCUCUCUGUACAGUCAACCTT against Il20rb, the z-score is reported as inactive: 0.151.
In the case of GCCACUCAGAGUGUGGAGUTT against Ddx20, the z-score is reported as inactive: -0.95.
With GGCAAUCCAUUUCUCAGUCTT against Tmprss5 the z-score was inactive: -0.962.
With GGCUGUCAAGAAGCACAUCTT against Inhba the z-score was inactive: 1.08.
In the case of GCGAAAAGUCCACCACAUATT against Cyp51, the z-score is reported as inactive: -0.958.
For GCUUGUUUGUUAGAGCUAGTT against Gad1, the z-score was inactive: 0.297.
